Measurements from patent US20020193425A1, “Cancer chemopreventative compounds and compositions and methods of treating cancers” (priority 2001, published 2002).

System: HL-60 (human promyelocytic) cells
Test: HL-60 cell proliferation assay of quassinoids, [3H]thymidine incorporation
Assay type: cell-based
Conditions: ratio of cytotoxic IC50 over antiproliferative IC50
Procedure: Induction of differentiation was determined by the ability of treated cells to produce superoxide anions (nitroblue tetrazolium (NBT)-reduction), a functional marker of mature macrophages or granulocytes. Proliferation capacity is equivalent to cell growth and was measured by incorporation of [3H]thymidine into DNA over a period of 18 h, and cytotoxic activity was evaluated by the loss of membrane integrity as shown by trypan blue exclusion. […] Although members of the brusatol and glaucarubolone series were active, when comparing members of both series that varied only in the positioning of the epoxymethano bridge, great differences were noted, as shown with yadianzolide C (5) and glaucarubolone (24), and analogues 4 (brusatol series) and 32 (glaucarubolone series).
HL-60 (human promyelocytic) cells were tested using a 4-day incubation protocol. In brief, cells in log phase (approximately 10^6 cells/mL) were diluted to […] and preincubated overnight (18 h) in 24-well plates to allow cell-growth recovery. Then, samples dissolved in DMSO were added, keeping the final DMSO concentration at 0.1% (v/v). Control cultures were treated with the same concentration of DMSO. After 4 days of incubation, the cells were analyzed to determine the percentage of cells undergoing maturation as determined by NBT reduction. Concomitantly, the effect on viability and proliferation of HL-60 cells was determined. In each experiment, 1α, 25-dihydroxyvitamin D3 (EC50=0.01 μM) and brusatol (EC50=0.07 μM) were used as reference controls. EC50 and IC50 values were calculated using 5-7 test concentrations (in duplicate), and consistent results were obtained, indicating the data reported for the related quassinoids are reliable.
(3) Cell Proliferation Assay. […] Cells were then collected on glass fiber filters (90×120 mm; Wallac, Turku, Finland) using a TOMTEC Harvester 96®.

| Compound | selectivity index |
| --- | --- |
| CC[C@@](O)(CC(=O)O[C@@H]1C(=O)O[C@@H]2C[C@@H]3C(C)=CC(=O)[C@H](O)[C@]3(C)[C@H]3[C@]4(O)OC[C@]32[C@@H]1[C@@H](C)[C@H]4O)C(C)C [compound 10, Peninsularinone] | 1.5 ± 0.4 |
| CC1=CC(=O)[C@@H](O)[C@]2(C)[C@H]3[C@]4(O)OC[C@]35[C@H]([C@@H](C)[C@H]4O)[C@@H](O)C(=O)O[C@@H]5C[C@@H]12 [compound 24, glaucarubolone] | 3.3 ± 1 |
| CC[C@](C)(O)C(=O)O[C@H]1C(=O)O[C@@H]2C[C@H]3C(C)=CC(=O)[C@@H](O)[C@]3(C)[C@H]3[C@@]4(O)OC[C@]32[C@@H]1[C@@H](C)[C@H]4O [compound 25, glaucarubinone] | 2.1 ± 0.8 |
| CC1=CC(=O)[C@@H](O)[C@]2(C)[C@H]3[C@@]4(O)OC[C@@]35[C@@H](C[C@@H]12)OC(=O)C[C@H]5[C@@H](C)[C@H]4O [compound 26, chaparrinone] | 4.3 ± 1.4 |
| samaderin B [compound 48] | >6 |
| yadanziolide C [compound 5] | >6.7 |
